This assay concerns the target T1, S-peptide-EGFP-tagged PLK4 fragment (residues 570–970) comprising the three Polo-boxes PB1-3 (human) (UniProt O00444).
T1 sequence: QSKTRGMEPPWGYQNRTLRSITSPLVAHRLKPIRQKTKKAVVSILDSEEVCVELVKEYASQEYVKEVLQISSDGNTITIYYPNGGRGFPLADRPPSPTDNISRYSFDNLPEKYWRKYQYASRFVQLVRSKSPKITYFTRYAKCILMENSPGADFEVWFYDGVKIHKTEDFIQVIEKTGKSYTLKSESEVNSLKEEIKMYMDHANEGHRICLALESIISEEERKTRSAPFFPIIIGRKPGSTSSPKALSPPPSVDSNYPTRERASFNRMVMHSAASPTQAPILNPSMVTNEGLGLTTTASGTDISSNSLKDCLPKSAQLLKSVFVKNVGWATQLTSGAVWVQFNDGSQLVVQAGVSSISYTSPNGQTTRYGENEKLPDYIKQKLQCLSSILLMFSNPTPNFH
As to the kind of experiment: affinity purification with mass spectrometry; S-peptide pulldown (S-protein agarose) of the S-peptide-EGFP-PLK4 fragment from extracts of U2OS Flp-In T-REx cells induced 24 hr with tetracycline; co-purifying proteins found by mass spectrometry.

Amino acid sequences for entries named in this document (tags omitted).
UniProt O94986: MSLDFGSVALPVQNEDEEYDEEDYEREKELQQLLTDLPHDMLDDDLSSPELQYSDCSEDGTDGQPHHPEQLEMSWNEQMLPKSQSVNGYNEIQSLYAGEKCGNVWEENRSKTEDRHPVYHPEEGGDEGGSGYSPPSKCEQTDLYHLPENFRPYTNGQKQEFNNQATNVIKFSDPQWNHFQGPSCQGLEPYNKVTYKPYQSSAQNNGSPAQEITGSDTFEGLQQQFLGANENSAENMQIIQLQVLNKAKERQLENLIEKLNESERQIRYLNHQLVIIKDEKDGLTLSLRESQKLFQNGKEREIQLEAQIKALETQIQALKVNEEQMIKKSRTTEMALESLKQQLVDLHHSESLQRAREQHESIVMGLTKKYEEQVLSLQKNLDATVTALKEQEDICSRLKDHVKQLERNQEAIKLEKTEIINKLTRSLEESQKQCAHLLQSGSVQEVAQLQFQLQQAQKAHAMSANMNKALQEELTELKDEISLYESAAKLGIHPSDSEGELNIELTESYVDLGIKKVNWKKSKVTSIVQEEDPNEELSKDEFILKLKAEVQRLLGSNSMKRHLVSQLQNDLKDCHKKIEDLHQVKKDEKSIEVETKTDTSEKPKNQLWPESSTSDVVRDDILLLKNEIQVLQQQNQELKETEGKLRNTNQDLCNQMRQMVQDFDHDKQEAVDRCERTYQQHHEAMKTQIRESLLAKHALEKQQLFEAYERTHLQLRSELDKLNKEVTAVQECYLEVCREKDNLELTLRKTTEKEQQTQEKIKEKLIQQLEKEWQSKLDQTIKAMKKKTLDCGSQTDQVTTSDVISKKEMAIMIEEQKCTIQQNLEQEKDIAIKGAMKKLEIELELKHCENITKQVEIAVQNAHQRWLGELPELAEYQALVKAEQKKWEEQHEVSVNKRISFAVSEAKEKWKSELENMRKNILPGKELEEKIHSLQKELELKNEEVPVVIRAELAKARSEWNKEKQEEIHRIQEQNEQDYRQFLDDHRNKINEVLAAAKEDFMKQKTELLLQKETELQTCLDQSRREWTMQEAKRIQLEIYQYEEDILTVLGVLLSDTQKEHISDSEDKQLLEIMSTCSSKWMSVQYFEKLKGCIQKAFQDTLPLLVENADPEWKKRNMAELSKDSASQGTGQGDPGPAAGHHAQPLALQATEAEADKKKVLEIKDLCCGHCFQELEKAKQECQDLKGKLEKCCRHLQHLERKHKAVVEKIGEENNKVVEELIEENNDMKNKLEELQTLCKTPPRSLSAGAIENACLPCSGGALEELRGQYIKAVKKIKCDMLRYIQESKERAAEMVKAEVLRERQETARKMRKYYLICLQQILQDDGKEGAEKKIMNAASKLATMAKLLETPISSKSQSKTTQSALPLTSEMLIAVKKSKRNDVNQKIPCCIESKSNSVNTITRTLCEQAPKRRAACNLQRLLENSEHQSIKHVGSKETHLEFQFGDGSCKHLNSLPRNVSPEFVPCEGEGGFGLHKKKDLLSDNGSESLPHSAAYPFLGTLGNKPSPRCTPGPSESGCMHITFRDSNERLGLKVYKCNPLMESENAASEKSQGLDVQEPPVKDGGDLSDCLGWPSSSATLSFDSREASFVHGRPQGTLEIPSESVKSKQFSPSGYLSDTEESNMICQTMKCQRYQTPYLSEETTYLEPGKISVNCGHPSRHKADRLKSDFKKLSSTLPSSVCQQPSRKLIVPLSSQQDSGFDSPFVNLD

No constants are given. Whether binding was seen depends on the method and setting. Binding seen in cells or lysates may run through a third protein. Here binding means that the protein was enriched with, or labelled near, the bait; the list need not be complete. Where a sequence is shown, tags or fusion partners need not be part of it.

As to Cep152 (from UniProt O94986 1-1710), the binding result is recorded as “binds”.

(Values after article PMC4530586, “STIL binding to Polo-box 3 of PLK4 regulates centriole duplication” (eLife, 2015).)
